Experimental data: the supplement of paper PMC6078165
Values are relative to the signal before dosing, not to a vehicle control; the signal also falls without drug.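 Fibroblast labels name human fibroblasts: mostly primary ones from tissues such as uterus (C12385, HUF), lung (H6013), bone (Hs27A), adrenal (HADF) and skin (WS1), plus mammary HMF and breast cancer-associated Hs343T. The cancer cells are basal-like or mesenchymal-like triple-negative breast cancer lines. The paper calls a changed response a hit when it shifts by more than 3x the replicate standard deviation. The tissue of the other fibroblasts is not given here.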

System: Hs578T
Assay: relative JC-1 red fluorescence (viability) vs pre-drug, coculture with fibroblast (fraction); higher = more viable cancer cells
Method: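 JC-1 labelled TNBC cells cocultured 1:1 (1,500 cells each) with CellTrace Violet stained primary or stromal fibroblasts in 384-well plates in FluoroBrite medium, treated with one of 42 anticancer drugs at 0.1, 1, 10 or 100 uM. JC-1 red fluorescence (mitochondrial integrity in cancer cells only) was read by plate reader every 8 h for 72 h. Values are normalised to each well's pre-drug value. The stock of one drug was tenfold lower, so its dose labels may be too high.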

CC[C@]1(O)C[C@@H]2CN(CCc3c([nH]c4ccccc34)[C@@](C(=O)OC)(c3cc4c(cc3OC)N(C)[C@H]3[C@@](O)(C(=O)OC)[C@H](OC(C)=O)[C@]5(CC)C=CCN6CC[C@]43[C@@H]65)C2)C1 [Vinblastine]
relative JC-1 red fluorescence
Details	8 h	16 h	24 h	32 h	40 h	48 h	56 h	64 h	72 h
10 µM	0.892	0.838	0.802	0.736	0.664	0.64	0.643	0.609	0.617
100 µM	0.815	0.635	0.556	0.453	0.369	0.317	0.291	0.248	0.229

relative JC-1 red fluorescence
Details	8 h	16 h	24 h	32 h	40 h	48 h	56 h	64 h	72 h
10 µM, coculture fibroblast: C12385	0.7702	0.7138	0.665	0.576	0.519	0.487	0.451	0.423	0.4087
10 µM, coculture fibroblast: H6013	0.8335	0.825	0.81	0.785	0.76	0.751	0.726	0.72	0.692
10 µM, coculture fibroblast: H6019	0.7785	0.717	0.682	0.608	0.576	0.552	0.527	0.519	0.501
10 µM, coculture fibroblast: H6076	0.928	0.897	0.846	0.783	0.689	0.674	0.656	0.642	0.622
10 µM, coculture fibroblast: H6231	0.955	0.92	0.829	0.719	0.626	0.603	0.549	0.526	0.496
10 µM, coculture fibroblast: HADF	0.888	0.815	0.787	0.736	0.685	0.662	0.634	0.618	0.584
10 µM, coculture fibroblast: HCFa	0.862	0.86	0.838	0.801	0.739	0.728	0.704	0.685	0.646
10 µM, coculture fibroblast: HCPF	0.914	0.866	0.807	0.751	0.6484	0.618	0.594	0.554	0.507
10 µM, coculture fibroblast: HHSteC	0.893	0.901	0.866	0.786	0.701	0.657	0.617	0.577	0.542
10 µM, coculture fibroblast: HMF	0.9358	0.926	0.867	0.805	0.704	0.673	0.647	0.613	0.588
10 µM, coculture fibroblast: HPFa	0.8984	0.8722	0.829	0.763	0.725	0.69	0.646	0.627	0.585
10 µM, coculture fibroblast: HUF	0.846	0.772	0.7625	0.66	0.589	0.5546	0.511	0.492	0.479
10 µM, coculture fibroblast: Hs27A	0.935	0.923	0.888	0.843	0.805	0.808	0.794	0.778	0.737
10 µM, coculture fibroblast: Hs343T	0.916	0.872	0.8138	0.777	0.6755	0.661	0.6217	0.5972	0.577
10 µM, coculture fibroblast: WS1	0.7825	0.709	0.644	0.587	0.51	0.488	0.45	0.427	0.414
100 µM, coculture fibroblast: C12385	0.771	0.5702	0.376	0.226	0.169	0.143	0.117	0.102	0.0885
100 µM, coculture fibroblast: H6013	0.778	0.425	0.303	0.258	0.228	0.2	0.173	0.156	0.126
100 µM, coculture fibroblast: H6019	0.7658	0.4487	0.318	0.215	0.176	0.156	0.141	0.132	0.12
100 µM, coculture fibroblast: H6076	0.831	0.577	0.406	0.351	0.299	0.273	0.24	0.206	0.183
100 µM, coculture fibroblast: H6231	0.874	0.612	0.416	0.374	0.294	0.259	0.21	0.186	0.168
100 µM, coculture fibroblast: HADF	0.833	0.449	0.292	0.229	0.191	0.163	0.133	0.122	0.0926
100 µM, coculture fibroblast: HCFa	0.857	0.743	0.609	0.519	0.442	0.394	0.352	0.324	0.276
100 µM, coculture fibroblast: HCPF	0.9263	0.712	0.455	0.374	0.296	0.268	0.253	0.201	0.176
100 µM, coculture fibroblast: HHSteC	0.847	0.465	0.342	0.289	0.256	0.227	0.204	0.182	0.155
100 µM, coculture fibroblast: HMF	0.91	0.666	0.431	0.3853	0.3202	0.283	0.2476	0.213	0.189
100 µM, coculture fibroblast: HPFa	0.836	0.854	0.687	0.528	0.458	0.412	0.368	0.342	0.295
100 µM, coculture fibroblast: HUF	0.844	0.786	0.762	0.563	0.427	0.366	0.311	0.28	0.255
100 µM, coculture fibroblast: Hs27A	0.949	0.854	0.404	0.269	0.218	0.198	0.165	0.15	0.109
100 µM, coculture fibroblast: Hs343T	0.851	0.554	0.412	0.357	0.297	0.267	0.227	0.192	0.177
100 µM, coculture fibroblast: WS1	0.6705	0.38937	0.25	0.155	0.112	0.0923	0.0753	0.062	0.0495
